Assay results published in US20260207548A1, “METHODS AND COMPOSITIONS FOR THE TREATMENT OF VASCULAR ANOMALIES” (THE CHILDREN'S MEDICAL CENTER CORPORATION, priority 2022, published 2026).
“Also recorded” adds a separate entry of the source. At least one structure is not confirmed: it was looked up by name or label, or the drawing left a doubt.

Assays:
[1] = system: Hemangioma-derived stem cells (HemSC); assay: IH xenograft model: patient-derived HemSC in Matrigel injected subcutaneously into nude mice, human blood vessel formation; type: in vivo
Description: MilliporeSigma) was prepared in DMSO. […] Dako, Glostrup, 0823) to stain human ECs. Next, sections were incubated with Alexa Fluor 647 chicken anti-mouse IgG (1:200, Invitrogen, Thermo Fisher Scientific) as a secondary antibody (FIG. 9C, 9D).

[2] = system: murine blood vessels; conditions: maximum dose of simvastatin or atorvastatin vs vehicle
[3] = system: LDL-receptor; assay: LDL-receptor mRNA in HemSC as indirect measure of HMGCR inhibition; type: cell-based, human; conditions: 5 μM simvastatin, 24 hours
[4] = system: hemangioma stem cells; conditions: 4 day treatment in vitro prior to implantation; cited from earlier work

Structure (SMILES)	HemSC blood vessel formation in xenograft model ([1]; overall statement, no single dose)	human CD31+ blood vessel formation from HemSC ([1]; simvastatin 10 mg/kg/d, 7 days)	vessels/mm2 in H&E-stained sections and human CD31+ vessels/mm2 ([1]; simvastatin 10 and 50 mg/kg/d, 7 days, vs control mice)	density of murine blood vessels in the Matrigel implants [2]	LDL-R mRNA [3]	hemangioma vessel formation [4]
CCC(C)(C)C(=O)O[C@H]1C[C@@H](C)C=C2C=C[C@H](C)[C@H](CC[C@@H]3C[C@@H](O)CC(=O)O3)[C@H]21 [simvastatin]	inhibited blood vessel formation; also recorded: significantly reduced HemSC blood vessel formation in a dose-dependent manner; also recorded: inhibit IH vessel formation	significantly blocked the formation of human blood vessels; also recorded: significantly inhibited human CD31+ blood vessel formation	significant reduction in vessel density	unaffected	significant upregulation of LDL-R mRNA; also recorded: increase LDL receptor mRNA	–
CO[C@H]1C[C@@H]2CC[C@@H](C)[C@@](O)(O2)C(=O)C(=O)N2CCCC[C@H]2C(=O)O[C@H]([C@H](C)C[C@@H]2CC[C@@H](O)[C@H](OC)C2)CC(=O)[C@H](C)/C=C(\C)[C@@H](O)[C@@H](OC)C(=O)[C@H](C)C[C@H](C)/C=C/C=C/C=C/1C [rapamycin]	–	–	–	–	–	blocked hemangioma vessel formation
